Data: PubChem BioAssay AID493014 (National Center for Advancing Translational Sciences (NCATS), 2011)
The list shows a part of the results. Further columns of the screen follow, without active or inactive calls. Most of these compounds were active or inconclusive in the main read-out, so they are no random draw. Words in brackets tell the shape of the fitted curve; partial curves, single points and poor fits give uncertain potencies.

Assay: qHTS Assay to Find Inhibitors of Chronic Active B-Cell Receptor Signaling
Conditions: ABC-DLBCL IkBa-CBG/CBR reporter, luminescence ratio (green luciferase fused to IkBa over red control in TMD8 lymphoma cells), 4 h
In short: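 Compounds up to 46 uM were incubated four hours with TMD8 cells whose green CBG68 luciferase is fused to IkappaBalpha; red CBR luminescence normalised the signal, and concentration-effect curves were fitted to fusion, red and ratio data.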

[1] = measured here: CBR red luminescence, cell number
[2] = measured here: IkBa-CBG green luminescence

## Cc1cc(Cl)ccc1OCC(=O)NCC(=O)N/N=C/c1ccco1
[1]
  AC50: 35.5 µM [rising, single point]

## Cc1ccc(-c2nnc(N3CCN(c4ccccn4)CC3)c3ccccc23)cc1
[1]
  AC50: 32.6 µM [falling, partial curve, poor fit]

## C=CCOc1c2ccc(C(=O)NCc3ccc(OC)cc3)cc2nn1C
[1]
  AC50: 3.98 µM [rising, full curve, poor fit]

## O=C1c2ccccc2C(=O)N1/N=C/c1ccc(O)c(O)c1O
[1]
  AC50: 0.112 µM [rising, full curve, poor fit]

## O=C(Nc1ccccc1Cl)N1CCN(c2ccccn2)CC1
[1]
  AC50: 23.1 µM [falling, single point]

## O=C(CCN1C(=O)/C(=C\c2ccccc2)SC1=S)N1CCOCC1
[1]
  AC50: 5.62 µM [falling, single point]

## COC(=O)C1CCN(C(=O)COC(=O)c2cc(-c3ccccc3)nc3ccc(OC)cc23)CC1
[1]
  AC50: 6.51 µM [rising, full curve, poor fit]

## Cc1nn(CCCC(=O)Nc2cccnc2Cl)c(C)c1[N+](=O)[O-]
[1]
  AC50: 35.5 µM [falling, single point]

## Cc1nc(SCc2ccc([N+](=O)[O-])cc2)nc2ccccc12
[1]
  AC50: 4.61 µM [rising, full curve, poor fit]

## CCOc1ccc(NC(=O)COC(=O)c2n[nH]c3ccccc23)cc1
[1]
  AC50: 29.1 µM [falling, single point]

## O=C(CS(=O)(=O)c1c[nH]c2ccccc12)NC1CCCCC1
[1]
  AC50: 29.1 µM [falling, single point]

## Cc1cc2c(ccc3[nH]onc32)n1
[1]
  AC50: 11.2 µM [falling, partial curve, poor fit]

## COc1ccccc1C1CC(c2ccco2)=NN1S(C)(=O)=O (configuration not stated)
[1]
  AC50: 7.94 µM [rising, partial curve]

## CCOc1ccc(CCNC(=O)CCN2N=C(c3ccc(OC)cc3)CCC2=O)cc1OCC
[1]
  AC50: 2.51 µM [rising, full curve]

## Cc1ccc(Nc2nc(-c3ccccc3)c(CC(=O)O)s2)cc1
[1]
  AC50: 22.4 µM [falling, single point]

## COc1ccccc1-n1cnc2cc(NS(=O)(=O)c3ccc(Br)cc3)ccc21
[1]
  AC50: 11.6 µM [falling, partial curve, poor fit]

## OC(CNCc1ccc2c(c1)OCO2)COc1ccc(F)cc1 (configuration not stated)
[1]
  AC50: 6.31 µM [falling, single point]

## O=C(CCc1nc2ccccc2c(=O)[nH]1)OCc1ccccc1F
[1]
  AC50: 20.6 µM [falling, partial curve, poor fit]

## N/C(=N\OC(=O)Cc1ccccc1[N+](=O)[O-])c1cccc(Br)c1
[1]
  AC50: 2.51 µM [rising, full curve, poor fit]

## O=C(COC(=O)/C(=C/c1cccs1)c1cccs1)NCc1ccccc1Cl
[1]
  AC50: 29.1 µM [falling, single point]

## COc1cc(C(=O)NNC(=O)COc2cccc(F)c2)ccc1OCC(=O)N1CCOCC1
[1]
  AC50: 5.8 µM [rising, full curve, poor fit]

## CCOc1cc(/C=N/Nc2cccc(C(=O)O)c2)ccc1OC(=O)c1ccccc1
[1]
  AC50: 3.98 µM [falling, partial curve]

## CC(=O)Nc1ccc(NC(=O)Nc2cccc(C)c2C)cc1
[1]
  AC50: 2.82 µM [falling, full curve]

## CCC(=O)N(C)C(c1ccccc1Cl)c1nnnn1-c1c(C)cccc1C (configuration not stated)
[1]
  AC50: 0.411 µM [falling, partial curve, poor fit]

## C=C1CCC[C@]2(C)C[C@H]3OC(=O)C(CNCC(OC)OC)[C@H]3CC12 (some centres not stated)
[1]
  AC50: 11.2 µM [falling, partial curve, poor fit]

## Cc1ccc(OC/C(=N\O)C(C)(C)C)c([N+](=O)[O-])c1
[2]
  AC50: 35.5 µM [falling, partial curve, poor fit]

## O=C(Nc1cc(S(=O)(=O)N2CCCCC2)ccc1Cl)c1ccccc1NS(=O)(=O)c1ccc(F)cc1
[1]
  AC50: 7.31 µM [falling, partial curve]

## O=C(CNc1ccc2ccccc2c1)N/N=C/c1ccc(C(=O)O)cc1
[1]
  AC50: 35.5 µM [falling, single point]

## CCNc1sc(C(=O)c2cccs2)c(N)c1-c1nc2ccccc2s1
[1]
  AC50: 12.6 µM [falling, partial curve]

## O=S(=O)(c1ccc2ccccc2c1)N1CCCCC1
[1]
  AC50: 0.517 µM [rising, full curve, poor fit]

## CCCCc1nc(S(=O)(=O)c2ccc(Cl)cc2)c(N2CCOCC2)o1
[1]
  AC50: 3.26 µM [rising, full curve]

## CCCN(CCC)S(=O)(=O)c1ccc(C(=O)Nc2nc3c(s2)CCc2ccccc2-3)cc1
[1]
  AC50: 8.2 µM [falling, partial curve]

## CCOC(=O)N1CCC(Nc2c(Nc3ccc(F)cc3)c(=O)c2=O)CC1
[1]
  AC50: 3.26 µM [falling, partial curve, poor fit]

## CCOC(OCC)c1ccc(/C=C\c2nccc(N)n2)cc1
[1]
  AC50: 2 µM [rising, full curve, poor fit]

## Cc1cccc(/N=C/c2nc(-c3ccccc3Br)oc2O)n1
[1]
  AC50: 17.8 µM [falling, single point]

## COC(CN(C)C(=O)c1ccc2c(c1)NC(=O)c1ccccc1S2)OC
[1]
  AC50: 35.5 µM [falling, single point]

## CCn1nc(C(=O)Nc2ccccc2N2CCCC2)c2ccccc2c1=O
[1]
  AC50: 10.3 µM [falling, partial curve]

## COc1cc([C@H]2Oc3c(OC)cc(CCCO[C@@H]4O[C@H](CO)[C@@H](O)[C@H](O)[C@H]4O)cc3[C@@H]2CO)ccc1O
[1]
  AC50: 20.6 µM [rising, single point]

## O=C(NNC(=S)Nc1ccc(Cl)cc1)c1cccs1
[1]
  AC50: 7.94 µM [falling, partial curve]

## CCN1CCN(CCNC(=O)c2ccc(/C=C3/Sc4ccccc4N(Cc4ccccc4C)C3=O)cc2)CC1
[1]
  AC50: 35.5 µM [falling, single point]

## CCc1nnc(NC(=S)Nc2ccccc2)s1
[1]
  AC50: 2.24 µM [falling, full curve]
[2]
  AC50: 3.55 µM [falling, partial curve, poor fit]

## CC(C)CC(=O)NC(=S)Nc1nc(-c2ccc(Cl)cc2)cs1
[1]
  AC50: 20.6 µM [rising, single point]

## CC(C)Oc1ccc(Br)cc1/C=N\NC(N)=S
[1]
  AC50: 18.4 µM [falling, partial curve, poor fit]

## Cc1ccc(Cn2c(C(=O)O)cc3sccc32)cc1
[1]
  AC50: 14.6 µM [falling, partial curve, poor fit]

## COc1ccc(NC(=S)N2CCCC2c2ccc(OC)c(OC)c2)cc1 (configuration not stated)
[1]
  AC50: 0.708 µM [rising, full curve, poor fit]

## Fc1ccc(C2CCCCN2Cc2nc(CC3CC3)no2)cc1 (configuration not stated)
[1]
  AC50: 3.98 µM [rising, full curve, poor fit]

## O=C(/C=C/c1ccccc1)c1ccc2c(c1)OCCCCO2
[1]
  AC50: 28.2 µM [falling, single point]

## O=c1cc(O)nc(-c2ccccc2)s1
[1]
  AC50: 14.1 µM [falling, single point]

## Cc1[nH]c2ccc(CNS(=O)(=O)c3ccc(S(=O)(=O)N4CCOCC4)cc3)cc2c1C
[1]
  AC50: 5.17 µM [rising, full curve, poor fit]

## Cc1ccc(NC(=S)c2nc3ccccc3[nH]2)c(C)c1
[2]
  AC50: 18.4 µM [rising, partial curve, poor fit]

## O=[N+]([O-])c1ncccc1OCc1ccc(-c2ccccc2)cc1
[1]
  AC50: 2 µM [rising, full curve, poor fit]

## COc1ccc(C(C#N)(CC(=O)O)c2cnccn2)cc1OC (configuration not stated)
[1]
  AC50: 4.11 µM [rising, full curve, poor fit]

## Cc1ccoc1C(=O)Nc1ccc(CC(=O)O)cc1
[1]
  AC50: 2.06 µM [rising, partial curve]

## CCOC(=O)/C=C1\SCC(=O)N1CC(=O)c1ccc[nH]1
[1]
  AC50: 1.12 µM [rising, partial curve, poor fit]

## NS(=O)(=O)c1ccc(NC(=O)CCC(=O)c2ccc(Cl)s2)cc1
[1]
  AC50: 8.91 µM [rising, partial curve, poor fit]

## Cc1cc(C)nc(NS(=O)(=O)c2ccc(NC(=O)c3cc(=O)c4ccccc4o3)cc2)n1
[1]
  AC50: 10 µM [rising, partial curve]
[2]
  AC50: 14.1 µM [falling, partial curve, poor fit]

## Oc1ccccc1C1NN=C(c2ccccc2)S1 (configuration not stated)
[1]
  AC50: 3.55 µM [falling, full curve]

## COc1cccc(C(=O)Nc2ccc3c(c2)n(C)c(=O)n3C)c1
[1]
  AC50: 25.1 µM [falling, partial curve]

## COc1ccc(C(=O)[C@H]2[C@H]3C(=O)N(c4ccccc4)C(=O)[C@H]3C3C=CC=NN32)cc1 (some centres not stated)
[1]
  AC50: 11.2 µM [falling, partial curve, poor fit]

## CCOC(=O)c1c(N)sc(C(=O)Nc2ccccc2F)c1C
[1]
  AC50: 35.5 µM [falling, single point]

## COc1ccc(CCN2C(=O)CSC2=S)cc1OC
[2]
  AC50: 35.5 µM [falling, single point]

## O=C(O)/C=C/C(=O)NCc1ccccc1
[1]
  AC50: 3.66 µM [rising, full curve]

## COc1ccc(-c2cc3ccccc3nc2N)cc1OC
[1]
  AC50: 22.4 µM [falling, single point]

## O=C(N/N=C1\C2CN3CCN(C2)CC1(c1ccccc1)C3)c1ccc(F)cc1
[1]
  AC50: 25.9 µM [falling, partial curve]

## O=C(C[n+]1ccc(C(=O)NCCCO)cc1)c1cccc(Br)c1
[1]
  AC50: 3.16 µM [rising, full curve, poor fit]
